According to patent US20230414632A1, “INHIBITION OF THE HIV-1 REPLICATION BY COMPOUNDS DIRECTED AGAINST A NEW TARGET OF THE VIRAL CYCLE” (priority 2020, published 2023):
At least one structure is not confirmed: it was looked up by name or label, or the drawing left a doubt.

Tested on: HIV-1 gfp+ virus in MT4 cells
Experiment: Ex-vivo inhibition of HIV-1 replication (multi-cycle, HIV-1 gfp+ in MT4 cells, flow cytometry)
Type: cell-based
Settings: 33 μM compound, day 5, MT4 cells infected with HIV gfp+
Method: Ability of compounds of formula I or II to inhibit the HIV-1 replicative cycle ex vivo was conducted by methods commonly used in antiretroviral pharmacology.
MT4 cell line (Charneau et al. J. Virol. 1992, 66:2814) were maintained in RPMI 1640. HEK293T were maintained in Dulbecco's Modified Eagle Medium (DMEM). All media were supplemented with Glutamax and with 10% heat-inactivated fetal calf serum (Hyclone) and 1% penicillin/streptomycin (100 units/mL) (Gibco). All media were purchased from Gibco (Life Technologies Co.). All cell lines used here were incubated at 37° C., under 5% CO2 atmosphere. […]
For HIV-1 gfp+ vectors, viral replication is followed by GFP expression [i.e. the percentage and geometric mean fluorescence intensity (MFI) of GFP^+ cells]. […] Toxicity is also assessed by flow cytometry (side and forward scatter).
At J0 (day zero) MT4 cells was used for infection with HIV gfp+ virus at multiplicity of infection (m.o.i.) reaching 0.1-0.2 (50 ng of p24^gag antigen per 10^6 cells). […] At time J5 (day five), cells are then collected for cytometry analysis to quantify the production of viral particles and cell survival.

Compound	production of viral particles
CCOC(=O)C1=C(C)NC(C)=C(C(=O)OCC)C1c1ccccc1/C=C/C(=O)OC(C)(C)C [I-a]	greatly reduced
COCCOC(=O)C1=C(C)NC(C)=C(C(=O)OC/C=C/c2ccccc2)C1c1cccc([N+](=O)[O-])c1 (centres unmarked) [I-b]	greatly reduced
